Data: PMC12548414
Screen size: about 1,600 compounds; about 20 (1%) showed an effect of 50% or more. The list shows a part of the results.

These compounds were tested on T1, E. coli pLC1021 (luc-trpAt trans-translation reporter). Settings: reporter signal, KKL-35 = 100%; rise means trans-translation inhibition; 2 h, 20 µM.
T1 construct: pLC1021 luc-trpAt reporter strain
Parameters: species or system Escherichia coli pLC1021; luc-trpAt non-stop luciferase reporter; luminescence rises when trans-translation is inhibited; normalized to KKL-35 and DMSO
How it was run: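 Luminescence (560 nm, 10 min after Bright-Glo) reports luciferase that escapes trans-translation tagging, measured after 2 h room-temperature treatment with 20 µM compound. Each plate was scaled between DMSO (negative) and 20 µM KKL-35 (positive) controls. Compounds scoring one standard deviation above the median counted as positive; at least two biological repeats.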

| Structure (SMILES) | % activation [%] |
| --- | --- |
| CCC(C)c1ccc(OCCn2ccnc2)cc1 (stereo not drawn) [KKL-1307] | 13 |
| Clc1ccc(C2=CC(c3ccc(Cl)cc3)n3nnnc3N2)cc1 (stereo not drawn) [KKL-0438] | 0 |
| Cc1cc(CN2CCC3(CC2)OCCc2sccc23)oc1C [KKL-1725] | 0 |
| CN(C)c1ccc(-c2nnc(SCC(=O)OCc3ccccc3)o2)cc1 [KKL-1259] | 11 |
| Cc1cc(OCC(=O)Nc2ccccc2)c2cc(Br)ccc2n1 [KKL-1816] | 9 |
| Cc1nc2ccccn2c1C(=O)NCc1ccc(Cl)cc1 [KKL-1748] | 13 |
| CCC1CCCCN1C(=S)NC(=O)c1ccc(F)cc1 (stereo not drawn) [KKL-0915] | 0 |
| COc1ccc(C(=O)Nc2cc(OC)c(NC(=O)c3ccco3)cc2OC)cc1 [KKL-1627] | 0 |
| Cc1cccc(C2c3[nH]c4ccccc4c3CCN2C(=O)c2csc3nc(C)cn23)c1 (stereo not drawn) [KKL-0642] | 3 |
| CC(C)OC1c2ncc(-c3ccccc3)cc2Sc2nc(-c3cccnc3)nn21 (stereo not drawn) [KKL-0343] | 0 |
| CC(C)Cc1ccc(CN2CCCC(NC(=O)c3ccc4c(c3)no[n+]4[O-])C2)cc1 (stereo not drawn) [KKL-0639] | 5 |
| O=C(CCCSc1ccccc1)Nc1nc(-c2ccccn2)cs1 [KKL-0800] | 1 |
| CC(C)C(=O)Nc1ccc(C(=O)Oc2ccccc2)c(O)c1 [KKL-0776] | 0 |
| Cc1cccc(-n2nc([N+](=O)[O-])c(NCCC3=CCCCC3)[n+]2[O-])c1 [KKL-0576] | 6 |
| COc1cc(/C=C/c2ccc3cccc(O)c3n2)cc([N+](=O)[O-])c1O [KKL-1276] | 0 |
| COc1ccc(-c2cc(C(=O)NN=C/C=C/c3ccccc3OC)[nH]n2)cc1 [KKL-1473] | 0 |
| Cc1ccc2oc(-c3cc(NC(=O)Cc4ccccc4)ccc3Cl)nc2c1 [KKL-0856] | 0 |
| COc1ccc2c(c1)C=C(CN(CCCn1ccnc1)Cc1ccc(C)o1)CO2 [KKL-0338] | 0 |
| CCOC(=O)C1=C(c2ccccc2)N=C(N)NC1c1ccc(OCc2ccc(Cl)cc2)c(OC)c1 (stereo not drawn) [KKL-0385] | 6 |
| COc1ccc2c(c1)NC1(COC3(CCN(C(=O)C4CCCC4)CC3)C1)c1cccn1-2 (stereo not drawn) [KKL-1225] | 8 |
| Cc1c(CN2CCC(CO)(CCOc3ccccc3)CC2)[nH]c2c(Cl)cccc12 [KKL-0669] | 0 |

| Structure (SMILES) | % activation [%] |
| --- | --- |
| CCOC(=O)COc1ccc2c(=O)c(Oc3cnn(-c4ccccc4)c3)c(C)oc2c1 [KKL-1201] | 12 |
| Cc1cccc(OCCCn2cnc3cc(C)c(C)cc32)c1 [KKL-1257] | 10 |
| CCCCc1cc(=O)oc2cc(OC(C)C(=O)OCC)c(Cl)cc12 (stereo not drawn) [KKL-0297] | 0 |
| CCCc1cc2c(=O)c(-c3ccc4c(c3)OCCCO4)coc2cc1OCC(=O)OCC [KKL-1419] | 0 |
| O=C(NCCCc1ccc(F)cc1)c1cc(-c2ccccn2)[nH]n1 [KKL-0693] | 0 |
| CSc1ncc(C(=O)Nc2cccc(-c3csnn3)c2)cn1 [KKL-0679] | 0 |
| CC(=O)OC1CC2C(COC(=O)CC(C)C)=COC(OC(=O)CC(C)C)C2C1(O)COC(=O)CC(C)C (stereo not drawn) [KKL-1614] | 0 |
| Cc1cc(OCC(=O)NC[C@H]2CC[C@H](c3nnc(-c4cccs4)o3)CC2)ccc1Cl [KKL-0524] | 0 |
| COc1ccccc1-c1csc(NC(=O)c2cccc(Cn3nc(C)cc3C)c2)n1 [KKL-0559] | 3 |
| COC(=O)COc1ccc(NC(=O)COc2ccc(C(C)(C)C)cc2)cc1 [KKL-1271] | 0 |
| O=C(Nc1ccc(NC2=NCCN2)cc1)c1ccc(C(=O)Nc2ccc(NC3=NCCN3)cc2)cc1 [KKL-1729] | 0 |
| O=C(N[C@H](CO)[C@H](O)c1ccc([N+](=O)[O-])cc1)C(Cl)Cl [KKL-0367] | 0 |
| Cc1c(CN2CCC(C(=O)Nc3ccc(-n4cnnn4)cc3)CC2)[nH]c2ccc(F)cc12 [KKL-1181] | 2 |
| COc1ccc(-c2csc(-c3ccc(OC)c(OC)c3)n2)cc1C [KKL-0864] | 1 |
| COc1ccccc1NC(=O)CSc1nc(-c2ccccc2)cc(C(F)(F)F)c1C#N [KKL-1359] | 0 |
| O=C(NCc1ccccc1F)N1CCN(Cc2ccc(Br)s2)CC1 [KKL-1829] | 1 |
| C=CCNc1nnc(Sc2ncccc2[N+](=O)[O-])s1 [KKL-0849] | 0 |
| CCC(C)c1ccc(O)c(NC(=S)NC(=O)c2ccc(-c3ccc(Cl)cc3)o2)c1 (stereo not drawn) [KKL-0745] | 0 |
| CCc1nc2sc(C(=O)NCc3ccc(F)cc3)c(N)c2c(C(F)(F)F)c1C [KKL-0606] | 1 |
| Cc1ccc(C)c(-c2nn(-c3cc(N4CCN(C)CC4)ccc3[N+](=O)[O-])c(=O)c3ccccc23)c1 [KKL-1426] | 0 |
| COc1ccc2nc(C)cc(SCC(=O)Nc3cc(Cl)ccc3Cl)c2c1 [KKL-1254] | 2 |

2 of the compounds above, field by field:
Clc1ccc(C2=CC(c3ccc(Cl)cc3)n3nnnc3N2)cc1 (stereo not drawn) [KKL-0438]
  % activation [%]: 0
Cc1cccc(-n2nc([N+](=O)[O-])c(NCCC3=CCCCC3)[n+]2[O-])c1 [KKL-0576]
  % activation [%]: 6
